Source: PubChem BioAssay AID296 (DTP/NCI, 2004)
The list does not hold the whole screen: it is rich in T/C values a quarter to a half above the control, in often repeated tests (any T/C) and in doses without a T/C. Further doses and runs are listed elsewhere. T/C gives the treated animals as a percentage of the vehicle group. Schedules are NCI's codes, read here as Q, the interval in days (D) or hours (H), X, the number of doses. Some T/C values are followed by the survivors on the day toxicity was checked, most often the fifth; where none is given, no animal had died by that day. Some entries hold several experiments; their values stand side by side, smallest first. Marks such as (2×) give the number of equal values in this list. Some doses have a count of surviving animals in place of a T/C: the source holds a T/C of zero for them, seemingly a mark for toxic or unscored doses. Survivors were counted at the toxicity check, usually on the fifth day, unless a day is given; later deaths do not show.

Test system: MX-1 breast xenograft, nude mice, tumor weight T/C
Assay: NCI In Vivo Anticancer Drug Screen. Data for tumor model Human Mammary Carcinoma MX-1 Xenograft (intrarenal inoculation) in NU/NU Swiss (nude) mice
Settings: T/C endpoint: mean tumor weight change, higher T/C = larger tumour; for T/C: evaluated on day 11
Procedure, shortened: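 Activity is given as a ratio, with each measurement in the compound-treated arm divided by the matching measurement in vehicle-dosed controls. Tumour size or survival serves as the measured parameter.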

[1] = dose: 600.0 mg/kg/injection, schedule: Q04DX003 (sc), vehicle: Klucel (hydroxypropylcellulose) (HPC)
[2] = dose: 1200.0 mg/kg/injection, schedule: Q04DX003 (sc), vehicle: Klucel (hydroxypropylcellulose) (HPC)
[3] = dose: 200.0 mg/kg/injection, schedule: Q01DX010 (sc), vehicle: saline
[4] = dose: 2400.0 mg/kg/injection, schedule: Q04DX003 (sc), vehicle: Klucel (hydroxypropylcellulose) (HPC)
[5] = dose: 25.0 mg/kg/injection, schedule: Q04DX003 (sc), vehicle: Klucel (hydroxypropylcellulose) (HPC)
[6] = dose: 50.0 mg/kg/injection, schedule: Q04DX003 (sc), vehicle: Klucel (hydroxypropylcellulose) (HPC)
[7] = dose: 200.0 mg/kg/injection, schedule: Q04DX003 (sc), vehicle: saline

`CCCCCC[Se][Se]CCCCCC` was tested, and the T/C (dose: 37.5 mg/kg/injection, schedule: Q04DX003 (sc), vehicle: Klucel (hydroxypropylcellulose) (HPC)) was 128 % of control, the survivor count [1] was 2 of 6 on day 11 and the survivor count [2] was 1 of 6 on day 11.
For `CN1CCN(CCCN2c3ccccc3Sc3ccc(C(F)(F)F)cc32)CC1`, the survivor count [3] was 1 of 3 on day 11 and the survivor count (dose: 400.0 mg/kg/injection, schedule: Q01DX010 (sc), vehicle: saline) was 0 of 3 on day 11.
In the case of `CCCC(=O)O.CCCC(=O)O.CCCC(=O)O.CCCC(=O)O.[Rh].[Rh]`, the survivor count (dose: 16.0 mg/kg/injection, schedule: Q04DX003 (sc), vehicle: suspension in saline) was 3 of 6 on day 11.
With `CC1CCC(n2cnc3c(Cl)ncnc32)O1` (configuration not stated) the T/C (dose: 150.0 mg/kg/injection, schedule: Q04DX003 (sc), vehicle: Klucel (hydroxypropylcellulose) (HPC)) was 129 % of control, the T/C (dose: 300.0 mg/kg/injection, schedule: Q04DX003 (sc), vehicle: Klucel (hydroxypropylcellulose) (HPC)) was 54, 88 (2×), 94 [5 of 6 alive on day 11], 106, 108, 118, 123 % of control and the T/C [1] was 47 (2×), 48, 67, 70, 78, 82, 82 % of control [5 of 6 alive on day 11]. The T/C [2] was 94 % of control [5 of 6 alive on day 11], the survivor count [2] was 0 of 6 on day 11, 1 of 6 on day 11, 2 of 6 on day 11, 3 of 6 on day 11 and the survivor count [4] was 0 of 6 on day 11.
For `C=C(C)[C@H]1Cc2c(ccc3c2O[C@@H]2COc4cc(OC)c(OC)cc4[C@@H]2C3=O)O1`, the T/C (dose: 2.0 mg/kg/injection, schedule: Q01DX010 (sc), vehicle: saline with Tween-80) was 143 % of control and the survivor count (dose: 16.0 mg/kg/injection, schedule: Q01DX010 (sc), vehicle: saline with Tween-80) was 1 of 3 on day 11.
In the case of `C=C1C(C)C2C(Cc3ccccc3)NC(=O)C23C(OC(C)=O)/C=C/C(C)(O)CC(C)C/C=C/C3C1O` (configuration not stated), the T/C (dose: 6.25 mg/kg/injection, schedule: Q04DX003 (sc), vehicle: Klucel (hydroxypropylcellulose) (HPC)) was 136 % of control, the T/C (dose: 12.5 mg/kg/injection, schedule: Q04DX003 (sc), vehicle: Klucel (hydroxypropylcellulose) (HPC)) was 4 [5 of 6 alive on day 11], 34, 106, 111 % of control and the T/C [5] was 45 and 120 % of control. The survivor count [5] was 0 of 6 on day 11 and 3 of 6 on day 11, the T/C [6] was 63 [5 of 6 alive on day 11] and 138 % of control [4 of 6 alive on day 11] and the survivor count [6] was 0 of 6 on day 11 and 1 of 6 on day 11. The survivor count (dose: 100.0 mg/kg/injection, schedule: Q04DX003 (sc), vehicle: Klucel (hydroxypropylcellulose) (HPC)) was 0 of 6 on day 11.
`Oc1ccc(O)cc1` was tested, and the survivor count [7] was 2 of 6 on day 11.
`C(C#CCN1CCOCC1)#CCN1CCOCC1` was tested, and the survivor count [4] was 1 of 6 on day 11.
With `COC1=C2C[C@@H](C)C[C@@H](OC)[C@@H](O)[C@H](C)/C=C(\C)[C@@H](OC(N)=O)[C@H](OC)/C=C\C=C(/C)C(=O)NC(=CC1=O)C2=O` the T/C (dose: 16.0 mg/kg/injection, schedule: Q04DX003 (sc), vehicle: saline) was 135 % of control.
With `CC1=C(/C=C/C(C)=C/C=C/C(C)=C/C=O)C(C)(C)CCC1` the survivor count (dose: 600.0 mg/kg/injection, schedule: Q04DX003 (sc), vehicle: saline with Tween-80) was 3 of 6 on day 11.
For `C[C@]12CCC(=O)C=C1CC[C@@H]1[C@@H]2C(=O)C[C@@]2(C)[C@H]1CC[C@]2(O)C(=O)CO`, the survivor count [2] was 3 of 6 on day 11 and the survivor count [4] was 3 of 6 on day 11.
With `c1csc(C[N+]23CN4CN(CN(C4)C2)C3)c1` the T/C [7] was 138 % of control and the survivor count (dose: 800.0 mg/kg/injection, schedule: Q04DX003 (sc), vehicle: saline) was 0 of 6 on day 11.
With `CCOC(=O)C(C)(C)Oc1ccc(Cl)cc1` the survivor count (dose: 2400.0 mg/kg/injection, schedule: Q04DX003 (sc), vehicle: saline with Tween-80) was 1 of 6 on day 11.
For `CCN=C=NCCCN(C)C`, the survivor count (dose: 100.0 mg/kg/injection, schedule: Q04DX003 (sc), vehicle: saline) was 2 of 6 on day 11 and the survivor count [7] was 0 of 6 on day 11.
`CCC1CC2CN(CCc3c([nH]c4ccccc34)C(C(=O)OC)(c3cc4c(cc3OC)N(C)C3C(O)(C(=O)OC)C(OC(C)=O)C5(CC)C=CCN6CCC43C65)C2)C1` (configuration not stated) was tested, and the survivor count (dose: 8.0 mg/kg/injection, schedule: Q04DX003 (sc), vehicle: water) was 0 of 6 on day 11, the survivor count (dose: 16.0 mg/kg/injection, schedule: Q04DX003 (sc), vehicle: water) was 0 of 6 on day 11 and 2 of 6 on day 15 and the survivor count (dose: 32.0 mg/kg/injection, schedule: Q04DX003 (sc), vehicle: saline) was 1 of 6 on day 11. For the same compound, the survivor count (dose: 32.0 mg/kg/injection, schedule: Q04DX003 (sc), vehicle: water) was 0 of 6 on day 11 and 3 of 6 on day 15.
With `CCOC1=Cc2c(oc3c(C(C)(C)C)cc(OCC)cc23)OC(C(C)(C)C)=C1` the T/C (dose: 37.5 mg/kg/injection, schedule: Q04DX003 (sc), vehicle: saline with Tween-80) was 91, 92, 106, 107 % of control, the T/C (dose: 75.0 mg/kg/injection, schedule: Q04DX003 (sc), vehicle: saline with Tween-80) was 74, 94, 118, 132 % of control and the T/C (dose: 150.0 mg/kg/injection, schedule: Q04DX003 (sc), vehicle: saline with Tween-80) was 55, 64, 123, 149 % of control. The T/C (dose: 300.0 mg/kg/injection, schedule: Q04DX003 (sc), vehicle: saline with Tween-80) was 97, 99, 102, 112 % of control.
In the case of `CN=C(N)N/N=C(\c1ccccc1)c1ccc(Br)cc1`, the T/C (dose: 12.5 mg/kg/injection, schedule: Q04DX003 (sc), vehicle: saline with Tween-80) was 131 % of control.
With `CCC[CH2][Hg][Cl]` the survivor count (dose: 75.0 mg/kg/injection, schedule: Q04DX003 (sc), vehicle: Klucel (hydroxypropylcellulose) (HPC)) was 2 of 6 on day 11.
For `COC1C(O)CC(OC2CC(OC3CC(O[C@@H]4C(=O)c5c(cc6cc(OC7CC(OC8CC(O)C(O)C(C)O8)C(O)C(C)O7)c(C)c(O)c6c5O)C[C@H]4[C@H](OC)C(=O)[C@@H](O)[C@@H](C)O)OC(C)C3O)OC(C)C2O)OC1C` (some centres not stated), the survivor count (dose: 1.5 mg/kg/injection, schedule: Q01DX010 (sc), vehicle: saline) was 0 of 3 on day 11 and the survivor count (dose: 6.0 mg/kg/injection, schedule: Q01DX010 (sc), vehicle: saline) was 1 of 3 on day 11.
With `CCCC(=O)O` the T/C (dose: 50.0 mg/kg/injection, schedule: Q01DX010 (sc), vehicle: saline) was 139 % of control, the T/C [3] was 141 % of control and the survivor count (dose: 800.0 mg/kg/injection, schedule: Q01DX010 (sc), vehicle: saline) was 1 of 3 on day 11. The survivor count (dose: 1600.0 mg/kg/injection, schedule: Q01DX010 (sc), vehicle: saline) was 0 of 3 on day 11 and the survivor count (dose: 3200.0 mg/kg/injection, schedule: Q01DX010 (sc), vehicle: saline) was 0 of 3 on day 11.
In the case of `C(=N/NC1=NCCN1)/c1c2ccccc2c(/C=N\NC2=NCCN2)c2ccccc12`, the survivor count (dose: 300.0 mg/kg/injection, schedule: Q04DX003 (sc), vehicle: suspension in saline) was 3 of 6 on day 11.
With `CC1=C(C)C(=O)O[C@@H]([C@](C)(O)[C@]2(O)CC[C@@]3(O)[C@@H]4C[C@H]5O[C@]56[C@@H](O)C=CC(=O)[C@]6(C)[C@H]4CC[C@]23C)C1` the T/C (dose: 8.0 mg/kg/injection, schedule: Q01DX010 (sc), vehicle: saline) was 145 % of control.
`CCCCNCCCNCCCNC(=O)c1csc(-c2csc(CCNC(=O)C(NC(=O)C(C)C(O)C(C)NC(=O)C(NC(=O)c3nc(C(CC(N)=O)NCC(N)C(N)=O)nc(N)c3C)C(OC3OC(CO)C(O)C(O)C3OC3OC(CO)C(O)C(OC(N)=O)C3O)c3cnc[nH]3)C(C)O)n2)n1` (configuration not stated) was tested, and the survivor count (dose: 64.0 mg/kg/injection, schedule: Q01DX010 (sc), vehicle: saline) was 0 of 3 on day 11.
